Values quoted from earlier work in patent publication US6844343B1, “N-substituted 4-aminopteridines, synthesis and use thereof as pharmaceutical agent” (Vasopharm Biotech GmbH, priority 1999, dated 2005).
For at least one compound, name, drawing or mass did not settle the structure.

Tested on: intact rat alveolar macrophages
Conditions: cited from earlier work

With `C[C@H](O)[C@H](O)[C@H]1CNc2nc(N)[nH]c(=O)c2N1` [BH4, 6R-5,6,7,8-tetrahydrobiopterin] as the compound, how does the “inhibition of NO production” value read?
Its value is “inhibition of NO production”.
